In publication PMC10616125:
Results are given in words; binding and its absence hold for the method and conditions named. Binding seen in cells or lysates may run through a third protein. A yes stands for co-enrichment or nearness to the bait. Other partners may have been found.

Sequences of proteins named here, by UniProt entry; tags and fusion partners are left off.
UniProt P68104: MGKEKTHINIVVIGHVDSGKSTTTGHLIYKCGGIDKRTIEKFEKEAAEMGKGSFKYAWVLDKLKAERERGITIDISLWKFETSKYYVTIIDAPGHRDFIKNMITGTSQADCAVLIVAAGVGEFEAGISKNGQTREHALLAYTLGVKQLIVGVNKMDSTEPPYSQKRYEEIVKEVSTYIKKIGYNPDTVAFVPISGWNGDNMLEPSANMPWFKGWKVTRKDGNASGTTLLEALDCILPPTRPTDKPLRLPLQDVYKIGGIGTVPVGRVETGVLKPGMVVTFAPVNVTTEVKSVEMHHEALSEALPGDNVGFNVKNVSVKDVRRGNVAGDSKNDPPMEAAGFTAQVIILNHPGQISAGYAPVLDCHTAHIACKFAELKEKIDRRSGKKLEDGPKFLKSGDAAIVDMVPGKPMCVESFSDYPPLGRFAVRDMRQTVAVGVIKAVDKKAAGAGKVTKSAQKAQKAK
UniProt P07355: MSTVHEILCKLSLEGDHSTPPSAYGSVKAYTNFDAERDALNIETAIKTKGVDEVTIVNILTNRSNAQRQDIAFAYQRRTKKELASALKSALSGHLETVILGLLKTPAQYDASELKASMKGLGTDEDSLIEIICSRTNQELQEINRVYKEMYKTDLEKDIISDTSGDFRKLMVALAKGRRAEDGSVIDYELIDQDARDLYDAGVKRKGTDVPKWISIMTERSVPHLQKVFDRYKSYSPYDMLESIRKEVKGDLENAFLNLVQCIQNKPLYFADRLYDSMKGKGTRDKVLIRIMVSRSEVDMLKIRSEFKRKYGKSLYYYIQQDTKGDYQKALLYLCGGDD

Biological target: T1, membrane palmitoylated protein 2 (MPP2), wild type (human) (UniProt Q14168)
T1 sequence: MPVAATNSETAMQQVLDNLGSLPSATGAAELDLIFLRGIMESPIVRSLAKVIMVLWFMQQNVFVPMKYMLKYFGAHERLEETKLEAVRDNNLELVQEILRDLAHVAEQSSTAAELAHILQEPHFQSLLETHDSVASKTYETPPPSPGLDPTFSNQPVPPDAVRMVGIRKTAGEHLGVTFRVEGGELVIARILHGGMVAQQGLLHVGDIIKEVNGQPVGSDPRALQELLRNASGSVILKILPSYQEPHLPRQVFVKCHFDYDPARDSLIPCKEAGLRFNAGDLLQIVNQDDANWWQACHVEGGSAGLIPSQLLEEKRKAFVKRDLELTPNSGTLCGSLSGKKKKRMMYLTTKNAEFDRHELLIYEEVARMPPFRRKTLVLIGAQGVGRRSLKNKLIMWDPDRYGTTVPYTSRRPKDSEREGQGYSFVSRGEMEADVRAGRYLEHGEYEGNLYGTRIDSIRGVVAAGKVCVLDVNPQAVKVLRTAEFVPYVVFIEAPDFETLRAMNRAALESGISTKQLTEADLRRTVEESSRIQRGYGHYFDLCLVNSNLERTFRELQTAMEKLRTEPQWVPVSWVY
Assay: affinity purification with mass spectrometry; MPP2 pulled down by IP with anti-MPP2 antibody and protein G agarose at 4 °C from ARPE19 cells transduced with wild-type or MPP2-N315 mutant, treated with MG132 (10 μm) for 8 h; LC-MS/MS

| binding | Substance |
| --- | --- |
| binds | EEF1A1 (from UniProt P68104 1-462) |
| binds | annexin A2 (ANXA2) (from UniProt P07355 1-339) |
